Results are given in words; binding and its absence hold for the method and conditions named. In cells and extracts the contact can be indirect. These calls come from enrichment with a bait or labelling near it, and not all partners need be listed. A no says only that the protein was not detected with the bait.
B1: Polycomb group protein PHC1 (protein, UniProt P78364 1-1004)
chain: METESEQNSNSTNGSSSSGGSSRPQIAQMSLYERQAVQALQALQRQPNAAQYFHQFMLQQQLSNAQLHSLAAVQQATIAASRQASSPNTSTTQQQTTTTQASINLATTSAAQLISRSQSVSSPSATTLTQSVLLGNTTSPPLNQSQAQMYLRPQLGNLLQVNRTLGRNVPLASQLILMPNGAVAAVQQEVPSAQSPGVHADADQVQNLAVRNQQASAQGPQMQGSTQKAIPPGASPVSSLSQASSQALAVAQASSGATNQSLNLSQAGGGSGNSIPGSMGPGGGGQAHGGLGQLPSSGMGGGSCPRKGTGVVQPLPAAQTVTVSQGSQTEAESAAAKKAEADGSGQQNVGMNLTRTATPAPSQTLISSATYTQIQPHSLIQQQQQIHLQQKQVVIQQQIAIHHQQQFQHRQSQLLHTATHLQLAQQQQQQQQQQQQQQQPQATTLTAPQPPQVPPTQQVPPSQSQQQAQTLVVQPMLQSSPLSLPPDAAPKPPIPIQSKPPVAPIKPPQLGAAKMSAAQQPPPHIPVQVVGTRQPGTAQAQALGLAQLAAAVPTSRGMPGTVQSGQAHLASSPPSSQAPGALQECPPTLAPGMTLAPVQGTAHVVKGGATTSSPVVAQVPAAFYMQSVHLPGKPQTLAVKRKADSEEERDDVSTLGSMLPAKASPVAESPKVMDEKSSLGEKAESVANVNANTPSSELVALTPAPSVPPPTLAMVSRQMGDSKPPQAIVKPQILTHIIEGFVIQEGAEPFPVGCSQLLKESEKPLQTGLPTGLTENQSGGPLGVDSPSAELDKKANLLKCEYCGKYAPAEQFRGSKRFCSMTCAKRYNVSCSHQFRLKRKKMKEFQEANYARVRRRGPRRSSSDIARAKIQGKCHRGQEDSSRGSDNSSYDEALSPTSPGPLSVRAGHGERDLGNPNTAPPTPELHGINPVFLSSNPSRWSVEEVYEFIASLQGCQEIAEEFRSQEIDGQALLLLKEEHLMSAMNIKLGPALKICAKINVLKET
B2: TADA2beta (protein, UniProt Q86TJ2 1-420)
chain: MAELGKKYCVYCLAEVSPLRFRCTECQDIELCPECFSAGAEIGHHRRYHGYQLVDGGRFTLWGPEAEGGWTSREEQLLLDAIEQFGFGNWEDMAAHVGASRTPQEVMEHYVSMYIHGNLGKACIPDTIPNRVTDHTCPSGGPLSPSLTTPLPPLDISVAEQQQLGYMPLRDDYEIEYDQDAETLISGLSVNYDDDDVEIELKRAHVDMYVRKLKERQRRKNIARDYNLVPAFLGKDKKEKEKALKRKITKEEKELRLKLRPLYQFMSCKEFDDLFENMHKEKMLRAKIRELQRYRRNGITKMEESAEYEAARHKREKRKENKNLAGSKRGKEDGKDSEFAAIENLPGFELLSDREKVLCSSLNLSPARYVTVKTIIIKDHLQKRQGIPSKSRLPSYLDKVLKKRILNFLTESGWISRDAS
B3: RCF1 (protein, UniProt P35251 1-1148)
chain: MDIRKFFGVIPSGKKLVSETVKKNEKTKSDEETLKAKKGIKEIKVNSSRKEDDFKQKQPSKKKRIIYDSDSESEETLQVKNAKKPPEKLPVSSKPGKISRQDPVTYISETDEEDDFMCKKAASKSKENGRSTNSHLGTSNMKKNEENTKTKNKPLSPIKLTPTSVLDYFGTGSVQRSNKKMVASKRKELSQNTDESGLNDEAIAKQLQLDEDAELERQLHEDEEFARTLAMLDEEPKTKKARKDTEAGETFSSVQANLSKAEKHKYPHKVKTAQVSDERKSYSPRKQSKYESSKESQQHSKSSADKIGEVSSPKASSKLAIMKRKEESSYKEIEPVASKRKENAIKLKGETKTPKKTKSSPAKKESVSPEDSEKKRTNYQAYRSYLNREGPKALGSKEIPKGAENCLEGLIFVITGVLESIERDEAKSLIERYGGKVTGNVSKKTNYLVMGRDSGQSKSDKAAALGTKIIDEDGLLNLIRTMPGKKSKYEIAVETEMKKESKLERTPQKNVQGKRKISPSKKESESKKSRPTSKRDSLAKTIKKETDVFWKSLDFKEQVAEETSGDSKARNLADDSSENKVENLLWVDKYKPTSLKTIIGQQGDQSCANKLLRWLRNWQKSSSEDKKHAAKFGKFSGKDDGSSFKAALLSGPPGVGKTTTASLVCQELGYSYVELNASDTRSKSSLKAIVAESLNNTSIKGFYSNGAASSVSTKHALIMDEVDGMAGNEDRGGIQELIGLIKHTKIPIICMCNDRNHPKIRSLVHYCFDLRFQRPRVEQIKGAMMSIAFKEGLKIPPPAMNEIILGANQDIRQVLHNLSMWCARSKALTYDQAKADSHRAKKDIKMGPFDVARKVFAAGEETAHMSLVDKSDLFFHDYSIAPLFVQENYIHVKPVAAGGDMKKHLMLLSRAADSICDGDLVDSQIRSKQNWSLLPAQAIYASVLPGELMRGYMTQFPTFPSWLGKHSSTGKHDRIVQDLALHMSLRTYSSKRTVNMDYLSLLRDALVQPLTSQGVDGVQDVVALMDTYYLMKEDFENIMEISSWGGKPSPFSKLDPKVKAAFTRAYNKEAHLTPYSLQAIKASRHSTSPSLDSEYNEELNEDDSQSDEKDQDAIETDAMIKKKTKSSKPSKPEKDKEPRKGKGKSSKK
B4: SMARCAD1 (protein, UniProt Q9H4L7 1-1026)
chain: MNLFNLDRFRFEKRNKIEEAPEATPQPSQPGPSSPISLSAEEENAEGEVSRANTPDSDITEKTEDSSVPETPDNERKASISYFKNQRGIQYIDLSSDSEDVVSPNCSNTVQEKTFNKDTVIIVSEPSEDEESQGLPTMARRNDDISELEDLSELEDLKDAKLQTLKELFPQRSDNDLLKLIESTSTMDGAIAAALLMFGDAGGGPRKRKLSSSSEPYEEDEFNDDQSIKKTRLDHGEESNESAESSSNWEKQESIVLKLQKEFPNFDKQELREVLKEHEWMYTEALESLKVFAEDQDMQYVSQSEVPNGKEVSSRSQNYPKNATKTKLKQKFSMKAQNGFNKKRKKNVFNPKRVVEDSEYDSGSDVGSSLDEDYSSGEEVMEDGYKGKILHFLQDASIGELTLIPQCSQKKAQKITELRPFNSWEALFTKMSKTNGLSEDLIWHCKTLIQERDVVIRLMNKCEDISNKLTKQVTMLTGNGGGWNIEQPSILNQSLSLKPYQKVGLNWLALVHKHGLNGILADEMGLGKTIQAIAFLAYLYQEGNNGPHLIVVPASTIDNWLREVNLWCPTLKVLCYYGSQEERKQIRFNIHSRYEDYNVIVTTYNCAISSSDDRSLFRRLKLNYAIFDEGHMLKNMGSIRYQHLMTINANNRLLLTGTPVQNNLLELMSLLNFVMPHMFSSSTSEIRRMFSSKTKSADEQSIYEKERIAHAKQIIKPFILRRVKEEVLKQLPPKKDRIELCAMSEKQEQLYLGLFNRLKKSINNLEKNTEMCNVMMQLRKMANHPLLHRQYYTAEKLKEMSQLMLKEPTHCEANPDLIFEDMEVMTDFELHVLCKQYRHINNFQLDMDLILDSGKFRVLGCILSELKQKGDRVVLFSQFTMMLDILEVLLKHHQHRYLRLDGKTQISERIHLIDEFNTDMDIFVFLLSTKAGGLGINLTSANVVILHDIDCNPYNDKQAEDRCHRVGQTKEVLVIKLISQGTIEESMLKINQQKLKLEQDMTTVDEGDEGSMPADIATLLKTSMGL

Protein sequences, listed by entry. Tags and fused reporters are not part of them.
UniProt P08579: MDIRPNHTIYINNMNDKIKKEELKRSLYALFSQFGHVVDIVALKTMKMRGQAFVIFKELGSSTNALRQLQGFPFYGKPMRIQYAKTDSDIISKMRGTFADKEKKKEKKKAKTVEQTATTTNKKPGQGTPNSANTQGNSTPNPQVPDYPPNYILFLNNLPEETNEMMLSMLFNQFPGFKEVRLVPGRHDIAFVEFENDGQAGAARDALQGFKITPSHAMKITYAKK

Molecular target: FLAG-V5-tagged U2-B” (FV5-U2-B”) (UniProt P08579)
Test: affinity purification with mass spectrometry; in vitro splicing reaction of NEB” nuclear extract with AdML pre-mRNA and ATPγS, Sephacryl-S500 gel filtration, pooled spliceosome fractions on anti-FLAG M2 Affinity Gel, mass spectrometry; two independent experiments

Binder	binding
B1	no binding
B2	no binding
B3	no binding
B4	no binding

— article PMC5035054
